From patent US20180346562A1 (ANAPTYSBIO, published 2018)
No constants are given. Whether binding was seen depends on the method and setting. Some results given as binding are weak or reduced against the parent protein; the word gives no strength.

What was measured:
human IL-33 [1] = biological target: T1, human IL-33 (human, UniProt O95760 112-270, limits assumed); assay: KinExA
T1 sequence (looked up): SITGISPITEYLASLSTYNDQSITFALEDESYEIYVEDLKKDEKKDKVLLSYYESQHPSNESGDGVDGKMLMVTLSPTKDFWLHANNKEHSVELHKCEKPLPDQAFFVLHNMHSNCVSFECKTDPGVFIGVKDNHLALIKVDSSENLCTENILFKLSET

[2] = biological target: cynomolgus IL-33 (cynomolgus); assay: KinExA
human IL-33 [3] = biological target: T1, human IL-33; assay: KinExA solution-phase equilibrium titration: APE4909 at a fixed concentration incubated with human IL-33 as titrant, free antibody captured on beads coated with histidine-tagged human IL-33

Measured: binding

B1: APE4909 antibody (antibody, V domains shown)
VH: QVQLMQSGAEVKKPGASVKVSCKASGYTFTSYWMHWVRQAPGQGLEWMGTIYPRNSNTDYNQKFKARVTMTRDTSTSTVYMELSSLRSEDTAVYYCARPLYYYLTSPPTLFWGQGTLVTVSS
VL: DIQLTQSPSFLSASVGDRVTITCKASQDVGTAVAWYQQKPGKAPKLLIYWASTRHTGVPSRFSGSGSGTEFTLTISSLQPEDFATYYCQQAKTYPFTFGSGTKLEIKR
notes: the claims treat these entries as variable regions; It was detected with an anti-human antibody; also called APE04909; APE4909.02 (lot suffix)
binds: human IL-33 [1] | [2] | human IL-33 [3]
